Results deposited as PubChem BioAssay AID686937 (Drosophila RNAi Screening Center, 2013)
Assay: 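Genes whose loss weakens secretory pathway function in fly cells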 (primary screen). Cell system: Drosophila S2 cells expressing secreted horseradish peroxidase. Reagents: long dsRNA against Drosophila genes. Duration: about 5.5 days (5 days dsRNA, then 12 h reporter induction). Conditions: reporter expression induced after 5 days of dsRNA, read 12 h later; inducer not stated. Read-out: 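After 5 days of dsRNA and 12 h of reporter induction, medium peroxidase read by chemiluminescence and scored as per-plate z-score; higher values mean more reporter released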. Reading the numbers: z-score: higher = more reporter secreted into medium.
The screen tested about 23,000 reagents; this is an unselected part of those with a known target gene and a result. 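Reduced-secretion tags in replicate 1 do not always agree with the z-scores; no criterion for assigning the tags was given.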 Not all columns of the deposit are shown. The record does not give: the amount of reagent.

{"target": "CG30380", "DRSC id": "DRSC05069", "z-score, replicate 1": 0.17}
{"target": "RNaseZ", "DRSC id": "DRSC06845", "z-score, replicate 1": 0.4}
{"target": "qkr54B", "DRSC id": "DRSC07670", "z-score, replicate 1": 0.33}
{"target": "CG43366", "DRSC id": "DRSC04857", "z-score, replicate 1": 0.45}
{"target": "CG43366", "DRSC id": "DRSC04864", "z-score, replicate 1": 0.21}
{"target": "vex", "DRSC id": "DRSC19481", "z-score, replicate 1": 0.17}
{"target": "vex", "DRSC id": "DRSC19651", "z-score, replicate 1": 0.42}
{"target": "vex", "DRSC id": "DRSC21843", "z-score, replicate 1": 0.34}
{"target": "CG4950", "DRSC id": "DRSC10463", "z-score, replicate 1": 0.15}
{"target": "Gr57a", "DRSC id": "DRSC06401", "z-score, replicate 1": 0.54}
{"target": "CG34150", "DRSC id": "DRSC13689", "z-score, replicate 1": 0.44}
{"target": "Cks85A", "DRSC id": "DRSC16562", "z-score, replicate 1": -0.01}
{"target": "Axn", "DRSC id": "DRSC14120", "z-score, replicate 1": 0.3}
{"target": "CG14506", "DRSC id": "DRSC14858", "z-score, replicate 1": 0.45}
{"target": "CG43897", "DRSC id": "DRSC10173", "z-score, replicate 1": 0.01}
{"target": "CG43897", "DRSC id": "DRSC10965", "z-score, replicate 1": -1.51}
{"target": "CG43897", "DRSC id": "DRSC10967", "z-score, replicate 1": 0.4}
{"target": "CG43897", "DRSC id": "DRSC21583", "z-score, replicate 1": 1.52}

Part of the list above, reformatted:
Gr57a [DRSC06401] | z-score, replicate 1: 0.54
CG34150 [DRSC13689] | z-score, replicate 1: 0.44
